Measured data: PubChem BioAssay AID1259308 (NCATS, 2017)

- Assay: 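Candidate targets for better recombinant protein yield in mammalian cells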 (primary screen)
- System: human HEK293 embryonic kidney cells stably expressing firefly luciferase (HEK-CMV-Luc2-Hygro)
- Knock-down reagent: single siRNA against human genes, 0.8 pmol siRNA per well
- Timing: 72 h
- Read-out: 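Luciferase light (ONE-Glo) measured on one replicate plate set and viability (CellTiter-Glo) on the other, scaled to a negative control siRNA, with robust z-scores and luciferase per cell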
- Reading the numbers: total luciferase, z-score and total luciferase, % of control: higher = more reporter protein produced; luciferase per cell, z-score: higher = more reporter output per viable cell; viable cells, % of control: higher = more viable cells
- Call rule: 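An siRNA counts as active if its total luciferase robust z-score exceeds 3; genes with two or more such siRNAs out of three were retested with fresh siRNAs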
- Meaning of the calls: active = raised luciferase; inactive = no rise
Shown is one part, drawn at random, of about 59,000 reagents. Over the whole deposit, about 1,510 (2.6%) were called active. 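Calls use total luciferase alone and ignore viability, so some active siRNAs may act by altering cell number.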 A number with no mark means an inactive call. Reagents against one gene are numbered here. Reagent sequences are not shown.

| gene knocked down | siRNA no. | total luciferase, z-score | total luciferase, % of control | luciferase per cell, z-score | viable cells, % of control |
| --- | --- | --- | --- | --- | --- |
| CETN3 (centrin 3) | 1 | -0.482 | 72.3 | -0.0766 | 82.4 |
| CETN3 (centrin 3) | 2 | -0.89 | 64.2 | -1.38 | 103 |
| CETN3 (centrin 3) | 3 | -1.15 | 59 | 2.67 | 32.7 |
| RTBDN (retbindin) | 1 | -1.33 | 55.5 | -1.34 | 88.2 |
| RTBDN (retbindin) | 2 | -1.29 | 56.3 | -0.791 | 77.5 |
| RTBDN (retbindin) | 3 | 1.18 | 105 | 1.02 | 90 |
| GPATCH1 (G-patch domain containing 1) | 1 | -1.32 | 55.7 | -1.4 | 90 |
| GPATCH1 (G-patch domain containing 1) | 2 | -0.765 | 66.7 | -0.749 | 90.8 |
| GPATCH1 (G-patch domain containing 1) | 3 | -0.485 | 72.2 | 0.149 | 77.6 |
| SLC37A1 | 1 | -1.53 | 51.4 | -1.83 | 92.9 |
| SLC37A1 | 2 | -1.88 | 44.5 | -2.36 | 92.4 |
| SLC37A1 | 3 | -1.5 | 52.1 | -0.511 | 66.6 |
| SETP20 (SET pseudogene 20) | 1 | 0.392 | 89.7 | 0.833 | 80.5 |
| SETP20 (SET pseudogene 20) | 2 | -1.39 | 54.2 | -0.442 | 68.1 |
| SETP20 (SET pseudogene 20) | 3 | -1.34 | 55.3 | -0.93 | 79 |
| KNOP1 (lysine rich nucleolar protein 1) | 1 | 1.53 | 112 | 2.19 | 70.5 |
| KNOP1 (lysine rich nucleolar protein 1) | 2 | -1.03 | 61.4 | -0.681 | 82.1 |
| KNOP1 (lysine rich nucleolar protein 1) | 3 | -0.463 | 72.7 | -0.449 | 91.4 |
| GSC2 (goosecoid homeobox 2) | 1 | 0.352 | 88.9 | 0.69 | 82.8 |
| GSC2 (goosecoid homeobox 2) | 2 | 0.422 | 90.3 | 0.304 | 93.1 |
| GSC2 (goosecoid homeobox 2) | 3 | 0.638 | 94.6 | 0.204 | 100 |
| CER1 (cerberus 1, DAN family BMP antagonist) | 1 | -0.341 | 75.1 | -0.807 | 104 |
| CER1 (cerberus 1, DAN family BMP antagonist) | 2 | 0.07 | 83.3 | 0.384 | 84.1 |
| CER1 (cerberus 1, DAN family BMP antagonist) | 3 | 0.775 | 97.3 | 0.205 | 103 |
| RPL36AP8 (ribosomal protein L36a pseudogene 8) | 1 | -0.536 | 71.2 | -0.179 | 83.4 |
| RPL36AP8 (ribosomal protein L36a pseudogene 8) | 2 | -0.966 | 62.7 | -0.505 | 80 |
| RPL36AP8 (ribosomal protein L36a pseudogene 8) | 3 | 0.527 | 92.4 | -0.231 | 110 |

A stretch from the list above, for reference:
| gene knocked down | siRNA no. | total luciferase, z-score | total luciferase, % of control | luciferase per cell, z-score | viable cells, % of control |
| --- | --- | --- | --- | --- | --- |
| GPATCH1 (G-patch domain containing 1) | 3 | -0.485 | 72.2 | 0.149 | 77.6 |
| SLC37A1 | 1 | -1.53 | 51.4 | -1.83 | 92.9 |
| SLC37A1 | 2 | -1.88 | 44.5 | -2.36 | 92.4 |
| SLC37A1 | 3 | -1.5 | 52.1 | -0.511 | 66.6 |
| SETP20 (SET pseudogene 20) | 1 | 0.392 | 89.7 | 0.833 | 80.5 |

The listing continues.
| gene knocked down | siRNA no. | total luciferase, z-score | total luciferase, % of control | luciferase per cell, z-score | viable cells, % of control |
| --- | --- | --- | --- | --- | --- |
| HAAO (3-hydroxyanthranilate 3,4-dioxygenase) | 1 | -0.827 | 65.4 | -0.938 | 93.6 |
| HAAO (3-hydroxyanthranilate 3,4-dioxygenase) | 2 | -0.944 | 63.1 | -0.981 | 91.3 |
| HAAO (3-hydroxyanthranilate 3,4-dioxygenase) | 3 | 0.912 | 100 | 0.7 | 93 |
| RBP7 (retinol binding protein 7) | 1 | -0.315 | 75.6 | -0.115 | 87.1 |
| RBP7 (retinol binding protein 7) | 2 | 0.889 | 99.6 | 0.287 | 103 |
| RBP7 (retinol binding protein 7) | 3 | -1.81 | 45.8 | -1.4 | 74 |
| PIH1D1 (PIH1 domain containing 1) | 1 | -0.31 | 75.7 | -0.782 | 104 |
| PIH1D1 (PIH1 domain containing 1) | 2 | 0.504 | 91.9 | 0.961 | 79.7 |
| PIH1D1 (PIH1 domain containing 1) | 3 | -2.41 | 34.1 | -3.93 | 107 |
| PRPF38B (pre-mRNA processing factor 38B) | 1 | 0.119 | 84.3 | 0.0493 | 92.9 |
| PRPF38B (pre-mRNA processing factor 38B) | 2 | -0.86 | 64.8 | 0.216 | 68.4 |
| PRPF38B (pre-mRNA processing factor 38B) | 3 | -0.922 | 63.6 | -0.7 | 85.4 |
| SCN5A (sodium voltage-gated channel alpha subunit 5) | 1 | -0.184 | 78.2 | 0.319 | 80.4 |
| SCN5A (sodium voltage-gated channel alpha subunit 5) | 2 | 1.84 | 118 | 2.96 | 60.7 |
| SCN5A (sodium voltage-gated channel alpha subunit 5) | 3 | -1.41 | 53.9 | -1.74 | 95.2 |
| AATF (apoptosis antagonizing transcription factor) | 1 | -0.988 | 62.2 | -0.691 | 83.4 |
| AATF (apoptosis antagonizing transcription factor) | 2 | -1.15 | 59.1 | -0.511 | 75.5 |
| AATF (apoptosis antagonizing transcription factor) | 3 | -0.212 | 77.7 | 0.137 | 83.7 |
| TRPC4AP | 1 | -0.182 | 78.3 | 0.177 | 83.5 |
| TRPC4AP | 2 | -0.246 | 77 | 0.348 | 78.5 |
| TRPC4AP | 3 | 0.535 | 92.5 | 0.492 | 90.8 |
| ZNF565 (zinc finger protein 565) | 1 | 2.52 | 132 | 1.26 | 106 |
| ZNF565 (zinc finger protein 565) | 2 | -0.892 | 64.1 | -0.196 | 75.5 |
| ZNF565 (zinc finger protein 565) | 3 | 1.45 | 111 | 1.61 | 81.1 |
| CYP21A2 (cytochrome P450 family 21 subfamily A member 2) | 1 | -0.0154 | 81.6 | -0.304 | 98.8 |
| CYP21A2 (cytochrome P450 family 21 subfamily A member 2) | 2 | -0.61 | 69.7 | -1.04 | 103 |
| CYP21A2 (cytochrome P450 family 21 subfamily A member 2) | 3 | -0.0661 | 80.6 | -0.452 | 101 |
| TMEFF2 | 1 | 0.465 | 91.1 | 0.199 | 96.6 |
| TMEFF2 | 2 | -0.465 | 72.6 | -1.04 | 107 |
| TMEFF2 | 3 | -1.13 | 59.4 | -0.703 | 79.9 |
| COMMD2 (COMM domain containing 2) | 1 | 0.182 | 85.5 | 0.541 | 82.8 |
| COMMD2 (COMM domain containing 2) | 2 | 1.06 | 103 | 1.37 | 80.3 |
| COMMD2 (COMM domain containing 2) | 3 | -0.0142 | 81.6 | -0.629 | 108 |
| SPATA31E2P (SPATA31 subfamily E member 2, pseudogene) | 1 | -1.05 | 61.1 | -0.627 | 80.5 |
| SPATA31E2P (SPATA31 subfamily E member 2, pseudogene) | 2 | -0.374 | 74.4 | -0.256 | 89 |
| SPATA31E2P (SPATA31 subfamily E member 2, pseudogene) | 3 | -3.23 | 17.5 | -2.97 | 42.9 |
| EIF3J (eukaryotic translation initiation factor 3 subunit J) | 1 | -0.806 | 65.8 | -1.21 | 101 |
| EIF3J (eukaryotic translation initiation factor 3 subunit J) | 2 | -0.628 | 69.4 | -0.743 | 94.3 |
| EIF3J (eukaryotic translation initiation factor 3 subunit J) | 3 | -0.919 | 63.6 | -0.388 | 78.7 |
| RBBP4 (RB binding protein 4, chromatin remodeling factor) | 1 | 1.06 | 103 | 1.73 | 72.9 |
| RBBP4 (RB binding protein 4, chromatin remodeling factor) | 2 | 0.367 | 89.2 | 1.52 | 66.7 |
| RBBP4 (RB binding protein 4, chromatin remodeling factor) | 3 | 0.748 | 96.8 | 0.00763 | 108 |
| HOXB13 (homeobox B13) | 1 | -1.88 | 44.4 | -2.48 | 95.4 |
| HOXB13 (homeobox B13) | 2 | 0.265 | 87.2 | 0.367 | 88.4 |
| HOXB13 (homeobox B13) | 3 | -0.712 | 67.7 | -1.14 | 102 |
| CYB5R3 (cytochrome b5 reductase 3) | 1 | 2.7 | 136 | 3.5 | 60.2 |
| CYB5R3 (cytochrome b5 reductase 3) | 2 | 1.07 | 103 | 0.72 | 95.4 |
| CYB5R3 (cytochrome b5 reductase 3) | 3 | 1.05 | 103 | 1.78 | 71.9 |
